Results are given in words; binding and its absence hold for the method and conditions named. Some binding calls cover weakened binding; strength is not graded here.
Biological target: T1, MICB expressed on the membrane of CHO cells (human) (UniProt Q29980)
T1 sequence (looked up): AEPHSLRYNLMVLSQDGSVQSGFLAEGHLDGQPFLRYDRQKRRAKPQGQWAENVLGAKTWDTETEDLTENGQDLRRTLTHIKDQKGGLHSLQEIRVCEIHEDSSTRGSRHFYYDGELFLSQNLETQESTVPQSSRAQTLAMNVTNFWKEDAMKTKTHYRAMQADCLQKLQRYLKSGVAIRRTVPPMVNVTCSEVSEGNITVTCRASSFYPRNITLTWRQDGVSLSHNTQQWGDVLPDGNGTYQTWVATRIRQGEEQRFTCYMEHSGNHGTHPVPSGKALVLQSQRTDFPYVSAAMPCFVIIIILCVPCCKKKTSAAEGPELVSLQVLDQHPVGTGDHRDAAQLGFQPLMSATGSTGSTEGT
Test: binding of biotinylated protein to transfected CHO cells (FIG. 1C)

The chains behind the UniProt entries cited, without tags or fusion partners. Residues count along the entry.
UniProt P26718, residues 73-216: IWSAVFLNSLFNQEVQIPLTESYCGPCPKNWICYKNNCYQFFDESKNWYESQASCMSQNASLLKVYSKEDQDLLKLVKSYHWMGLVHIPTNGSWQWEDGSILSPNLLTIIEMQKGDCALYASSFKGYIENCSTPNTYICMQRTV

biotinylated extracellular domain of NKG2D (from UniProt P26718 73-216) (receptor)
binding: binds
